From PubChem BioAssay AID1347076 (National Center for Advancing Translational Sciences (NCATS), 2019)
Screen size: about 400,000 compounds; about 13,000 (3.2%) were called active. This list was built around the results that the source calls inconclusive (neither active nor inactive); the mix of calls is not that of the screen. Calls come from the whole dose curve; as a rule, active = well fitted cell-killing curve with a large enough effect; inconclusive = small, poorly fitted or top-dose-only effect, or effect the other way; inactive = flat fitted curve, though single readings scatter. Potencies beside an inconclusive call are fits to weak or partial responses and may not hold up. A structure can be active in one record and inactive in another.

Assay: qHTS assay for MDR1-selective chemotherapeutics: Primary screen using the drug-selected MDR subline cells KB-V1; note: nearly all actives have a fitted effect of over 60% in size
Details: KB-V1 MDR cells viability, CellTiter-Glo, 72 h; series mostly up to 46.1 µM
Summary of the method: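 Following 72 h at 37 degrees C with compound, KB-V1 cell viability was read by CellTiter-Glo luminescence, medium being phenol-red-free DMEM plus 10% FBS; concentration-response parameters came from normalized, curve-fitted qHTS data.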
Potency is the fitted concentration of half-maximal effect.

Row | Structure (SMILES) | Potency
1 | COC(=O)C1=C(CS(=O)(=O)c2ccccc2)NC(=O)NC1c1ccc(O)cc1 (stereo not drawn) | inconclusive: 29.1 µM [rising, single point]
2 | COc1ccc(-c2csc(N3CCN(Cc4ccc5c(c4)OCO5)CC3)n2)cc1 | active: 13 µM
3 | COc1ccc(C(=O)CC(CC(=O)c2ccc(OC)cc2)C(=O)O)cc1 | inconclusive: 29.1 µM [rising, single point]
4 | O=C(C[C@@H]1C/C=C/CC[C@H](Cc2ccc(F)cc2)C(=O)O[C@H](c2ccccc2)CNC1=O)NCCO | inactive
5 | COc1cc(C(=O)Nc2ccc(C)c(S(=O)(=O)N(C)C)c2)ccc1OCC(=O)N1CCOCC1 | inactive
6 | COc1cc(-c2cc(C(=O)N3CCCCCC3)c3ccccc3n2)cc(OC)c1OC | inconclusive: 18.4 µM [cytotoxic, single point]
7 | COc1ccccc1Cc1c(-c2ccc(Cl)cc2)nc2ccc(Br)cn12 | inactive
8 | COc1ccc(-c2cn(-c3ccc(Cl)cc3)c3[n+]2CCCCC3)cc1 | inactive
9 | CCOC(=O)C1(Cc2cccc(Cl)c2)CCCN(C(=O)c2cnn(CC)c2)C1 (stereo not drawn) | inconclusive: 16.4 µM [cytotoxic, single point]
10 | CC(C)C[C@@H](CO)N1CCN(Cc2ccc(O)cc2)CCC1=O | inconclusive: 29.1 µM [cytotoxic, partial curve, poor fit]
11 | CCOc1ccc(S(=O)(=O)N2CCN=C2c2ccccc2)cc1 | active: 11.6 µM
12 | CCOc1cc(/C=N/NC(=O)c2nnn(-c3nonc3N)c2C)ccc1OCc1cccc(F)c1 | inconclusive: 29.1 µM [rising, single point]
13 | COc1cccc(N2C(=O)C(CC(=O)Nc3ccccc3)N(C3CCCCC3)C2=O)c1 (stereo not drawn) | inconclusive: 9.2 µM [cytotoxic, partial curve, poor fit]
14 | CC(C)[C@H](NS(=O)(=O)c1ccccc1)C(=O)OCC(=O)NC(=O)NC1CCCCC1 | inconclusive: 0.651 µM [rising, partial curve, poor fit]
15 | CCC(C(=O)OCC(=O)C1(O)CCC2C3CCC4=CC(=O)CCC4(C)C3C(O)CC21C)C(C)C (stereo not drawn) | inconclusive: 29.1 µM [cytotoxic, single point]
16 | O=C(CN1C(=O)S/C(=C\c2ccc(Cl)cc2)C1=O)NCCCn1ccnc1 | inconclusive: 23.1 µM [rising, single point]
17 | COc1ccc(NC(=O)Cc2ccc(Cl)cc2)cc1NC(=O)c1ccco1 | active: 7.31 µM
18 | CCOc1cc(/C=N/NC(=O)CN2CCOCC2)ccc1OCc1ccccc1 | inconclusive: 16.4 µM [cytotoxic, partial curve, poor fit]
19 | CCOC(=O)NC(=O)c1cn(Nc2ncc(C(F)(F)F)cc2Cl)c(=O)[nH]c1=O | inconclusive: 29.1 µM [rising, single point]
20 | Cc1cc2[nH]c(=O)c(=O)[nH]c2cc1S(=O)(=O)N1CCN(c2cccc(C(F)(F)F)c2)CC1 | inactive
21 | Cc1onc(-c2c(Cl)cccc2Cl)c1C(=O)OCC(=O)c1ccccc1 | inactive
22 | O=C([O-])c1ccccc1-[n+]1c(-c2ccccc2)cc(-c2ccccc2)cc1-c1ccccc1 | inactive

2 of the compounds above, with tabs.
Row	Structure (SMILES)	Potency
15	CCC(C(=O)OCC(=O)C1(O)CCC2C3CCC4=CC(=O)CCC4(C)C3C(O)CC21C)C(C)C (stereo not drawn)	inconclusive: 29.1 µM [cytotoxic, single point]
16	O=C(CN1C(=O)S/C(=C\c2ccc(Cl)cc2)C1=O)NCCCn1ccnc1	inconclusive: 23.1 µM [rising, single point]

Next entries follow:

Row | Structure (SMILES) | Potency
23 | CC(C)(C)c1cc(CCC(=O)NCCc2ccccn2)cc(C(C)(C)C)c1O | inconclusive: 5.8 µM [cytotoxic, partial curve]
24 | COc1ccc(S[C@@H](CCN2CC[C@H](O)CCC2=O)c2ccccc2)cc1 | inconclusive: 20.6 µM [cytotoxic, single point]
25 | CCc1nc2ccc(C(=O)Nc3cccc(NS(C)(=O)=O)c3)cn2c1N(CCC(C)C)CCN(C)C | inactive
26 | CC(C)(C)n1nnnc1C(c1ccccn1)N(Cc1ccccc1)Cc1ccc(Cl)cc1 (stereo not drawn) | inconclusive: 18.4 µM [cytotoxic, single point]
27 | CN(C)c1ccc(/C=C/c2nc3ccccc3s2)cc1 | active: 13 µM
28 | Cc1ccc(NC(=O)COc2ccccc2C(=O)Nc2ccccc2)cc1 | inactive
29 | O=C(COc1ccccc1)Nc1ccccc1N1CCN(c2ccc(F)cc2)CC1 | inconclusive: 2.31 µM [cytotoxic, full curve, poor fit]
30 | CCn1c(/C=C/c2ccccc2Cl)nc2ccccc2c1=O | inactive
31 | COC(=O)c1cc(NS(=O)(=O)c2ccc3c(c2)CCC(=O)N3)cc(C(=O)OC)c1 | inconclusive: 4.61 µM [rising, partial curve, poor fit]
32 | O=C(O)c1ccc(N/N=C/c2ccnc3ccccc23)cc1 | inactive
33 | O=C(CC1c2ccccc2C=C(c2ccsc2)N1c1ccc(-c2cccnc2)cc1)C1CC1 (stereo not drawn) | inconclusive: 18.4 µM [cytotoxic, single point]
34 | COc1cc(OC)cc(C(=O)NCc2ccc3c(c2)OCO3)c1 | inactive
35 | COc1ccccc1-c1nc(C(N)=O)c2[nH]c(=O)n(-c3cccc(C)c3)c2n1 | inconclusive: 29.1 µM [cytotoxic, single point]
36 | N#CC[C@H](Cc1ccccc1)N1CC[C@@H](NC(=O)OCc2ccccc2)CCC1=O | inconclusive: 20.6 µM [cytotoxic, partial curve, poor fit]
37 | COCCOC(=O)C1=C(C)NC(=O)NC1c1cn(-c2ccccc2)nc1-c1ccccc1 (stereo not drawn) | inactive
38 | O=C(Nc1ccc(Br)cc1)C1CCN(C(=O)c2ccco2)CC1 | active: 20.6 µM
39 | c1ccc(OCc2nn3c(Cn4cnc5ccccc54)nnc3s2)cc1 | inconclusive: 18.4 µM [cytotoxic, single point]
40 | CCOC(=O)N1CCN(C(=O)C[C@@H]2C[C@@]3(C(=O)OCC)CCC=C3N(Cc3cccc4ccccc34)C2=O)CC1 | inconclusive: 29.1 µM [cytotoxic, single point]
41 | O=C(NCCCOc1ccc([N+](=O)[O-])cc1Cl)OCc1ccccc1 | inconclusive: 29.1 µM [cytotoxic, single point]
42 | Cc1c(NC(=O)c2cc(S(=O)(=O)N3CCCCC3)ccc2Cl)c(=O)n(-c2ccccc2)n1C | inactive
43 | COc1cc2c(cc1OC)[C@H](Cc1ccc(O)cc1)NCC2 | inconclusive: 11.6 µM [cytotoxic, partial curve, poor fit]

Filtered by structure, those above with a COOH group (2)
Row | Structure (SMILES) | Potency
3 | COc1ccc(C(=O)CC(CC(=O)c2ccc(OC)cc2)C(=O)O)cc1 | inconclusive: 29.1 µM [rising, single point]
32 | O=C(O)c1ccc(N/N=C/c2ccnc3ccccc23)cc1 | inactive
